Some results come without the dose or concentration used.
What was measured:
Assay in all cases: Cellular uptake kinetics, fluorescence of cell lysates
Assay type in all cases: cell-based, human
Conditions in all cases: 37 °C, incubation up to 24 h
[1] = test system: HDF
[2] = test system: A375
[3] = test system: MeWo

Structure (SMILES)	time within which the majority of the porphyrin is internalised [1] [h]	time within which the majority of the porphyrin is internalised [2] [h]	time within which the majority of the porphyrin is internalised [3] [h]
CCCCCCCCCCCCCC(=O)Nc1ccc(-c2c3nc(c(-c4ccc[n+]([O-])c4)c4ccc([nH]4)c(-c4ccc[n+]([O-])c4)c4nc(c(-c5ccc[n+]([O-])c5)c5ccc2[nH]5)C=C4)C=C3)cc1 [TOPyP3-C13H27, 5-(4-Tetradecanamidophenyl)-10,15,20-tris(1-oxido-3-pyridyl)porphyrin]	≤ 6	≤ 6	≤ 12
CCCCCCCCCC(=O)Nc1ccc(-c2c3nc(c(-c4ccc[n+]([O-])c4)c4ccc([nH]4)c(-c4ccc[n+]([O-])c4)c4nc(c(-c5ccc[n+]([O-])c5)c5ccc2[nH]5)C=C4)C=C3)cc1 [TOPyP3-C9H19, 5-(4-Decanamidophenyl)-10,15,20-tris(1-oxido-3-pyridyl)porphyrin]	≤ 6	≤ 6	≤ 12
